# Data published in the supplement of paper PMC8104966.
# This is one part of the list. This data set is noisy: repeats of one test often differ as much as different tests do.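 U2OS cells carrying ACE2 were mixed with U2OS cells carrying full-length spike, and fusion was scored by imaging as the share of nuclei showing both cell types' fluorescent markers. A compound counts as an inhibitory hit when it is non-toxic and its fusion z-score falls below -3, meaning more than three standard deviations below the plate's DMSO wells.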
# Test system: U2OS ACE2 x SARS-CoV-2 spike co-culture
# Test: cell-cell fusion (fraction fused) z-score vs plate DMSO control; higher = more fusion
# Conditions: 30 µM; 5 h; toxicity class: non-toxic, passed QC
row,Compound,cell-cell fusion (z-score)
1,COc1ccc(-c2coc3cc(OC)ccc3c2=O)cc1,inactive: 2.21
2,C[C@]12C=CC(=O)C=C1CCC1C2[C@@H](O)C[C@@]2(C)C1CC[C@]2(O)C(=O)COC(=O)CCC(=O)O (some centres undefined),inactive: -0.159
3,CC(C)(C#N)O[C@@H]1O[C@H](CO)[C@@H](O)[C@H](O)[C@H]1O,inactive: 1.23
4,NC(=O)c1cn(Cc2c(F)cccc2F)nn1 [Rufinamide],inactive: 2.77
5,CC1NC(=O)NC1=O (centres undefined),inactive: 0.478
6,CC/C(=C(\c1ccccc1)c1ccc(OCCN(C)C)cc1)c1ccccc1.O=C(O)CC(O)(CC(=O)O)C(=O)O [Tamoxifen Z-isomer citrate],inactive: 2.47
7,CC(=O)NC[C@H]1CN(c2ccc(N3CCOCC3)c(F)c2)C(=O)O1,inactive: 2.25
8,CC(=O)NC[C@H]1CN(c2ccc(N3CCOCC3)c(F)c2)C(=O)O1 [Linezolid],inactive: 1.99
9,CC1=C(/C=C/C(C)=C/C=C/C(C)=C/C=C/C=C(C)/C=C/C=C(C)/C=C/C2=C(C)CCCC2(C)C)C(C)(C)CCC1 [beta-CAROTENE [2mM]],inactive: 1.28
10,Cl.O=S(=O)(c1cccc2cnccc12)N1CCCNCC1 [Fasudil (HA-1077) HCl],inactive: 2.94
11,N#C/C(=C\c1ccc(-c2cc(Cl)ccc2Cl)o1)C(=O)Nc1cccc2ncccc12,inactive: 2.03
12,C[N+]1(C)C2CCC1CC(OC(=O)C(CO)c1ccccc1)C2.[Br-] (centres undefined) [Atropine methyl bromide],inactive: 1.91
13,CCC(CC)CC1(C(=O)Nc2ccccc2SC(=O)C(C)C)CCCCC1 [Dalcetrapib(JTT-705)],inactive: 1.64
14,C=CCc1ccc(OC(=O)c2ccccc2)c(OC)c1,inactive: 3.94
15,C[C@@H]1COCCN1c1cc(C2(S(C)(=O)=O)CC2)nc(-c2cccc3[nH]ccc23)n1,inactive: 0.881
16,Oc1ccc(Nc2nc(-c3ccc(Cl)cc3)cs2)cc1,active: -8.58
17,CS(=O)(=O)O.Cc1c(O)cccc1C(=O)N[C@@H](CSc1ccccc1)[C@H](O)CN1C[C@H]2CCCC[C@H]2C[C@H]1C(=O)NC(C)(C)C [Nelfinavir mesylate hydrate],active: -6.04
18,C[C@H](Cc1ccccc1)Nc1ncnc2c1ncn2[C@@H]1O[C@H](CO)[C@H](O)C1O (stereo partly drawn) [R(-)-N6-(2-Phenylisopropyl)adenosine],inactive: 1.44
19,"COC(=O)C[C@H]1C(C)(C)C2(O)OC34CC2C(=O)[C@]1(C)C3CC[C@]1(C)C4=CC(=O)O[C@H]1c1ccoc1 (stereo partly drawn) [8beta-HYDROXYCARAPIN, 3,8-HEMIACETAL]",inactive: 2.06
20,CC(=O)Oc1ccc(/C=C/c2cc(OC(C)=O)cc(OC(C)=O)c2)cc1,inactive: 2.25
21,CCCOc1ccc(C(=O)OCCN(CC)CC)cc1N.Cl,inactive: 3.5
22,CC(=O)O[C@H]1CC2(C)[C@@H](C[C@@H](O)[C@H]3[C@@]4(C)CC[C@@H](O)[C@@H](C)[C@@H]4CC[C@@]32C)/C1=C(/CCC=C(C)C)C(=O)[O-].[Na+] (some centres undefined) [Fusidic acid sodium],inactive: 4.88

row,Compound,cell-cell fusion (z-score)
1,COc1nc(C)nc(Cl)c1NC1=NCCN1.Cl [Moxonidine hydrochloride],inactive: 2.24
2,C=C[C@@H]1C[C@]1(NC(=O)[C@@H]1C[C@@H]2CN1C(=O)[C@H](C(C)(C)C)NC(=O)O[C@@H]1C[C@H]1CCCCCc1nc3ccc(OC)cc3nc1O2)C(=O)NS(=O)(=O)C1CC1 [Grazoprevir],inactive: 1.81
3,O=C(O)c1cc(=O)[nH]c(=O)[nH]1,inactive: 0.353
4,CC1=C(/C=C/C(C)=C/C=C/C(C)=C/C=C/C=C(C)/C=C/C=C(C)/C=C/C(=O)[C@]2(C)C[C@@H](O)CC2(C)C)C(C)(C)C[C@H](O)C1,inactive: 2
5,Cl.OC(CCN1CCCCC1)(c1ccccc1)C1CCCCC1 (centres undefined) [Trihexyphenidyl hydrochloride],inactive: 0.554
6,Cl.OC(CCN1CCCCC1)(c1ccccc1)C1CCCCC1 (centres undefined),inactive: 2.55
7,"Nc1ccn([C@H]2CC[C@@H](CO)O2)c(=O)n1 [2',3'-dideoxycytidine]",inactive: 2.34
8,Nc1ccn([C@H]2CC[C@@H](CO)O2)c(=O)n1,inactive: 1.11
9,CC(C)(CO)[C@@H](O)C(=O)NCCCO [Dexpanthenol],inactive: 1.14
10,CC(C)(Oc1ccc(C(=O)c2ccc(Cl)cc2)cc1)C(=O)O,inactive: 1.17
11,CC[N+](CC)(CC)CC.[Cl-] [Tetraethylammonium chloride],inactive: 0.82
12,CC(C)Oc1ccc2c(=O)cc(-c3ccccc3)oc2c1,inactive: 0.61
13,C[C@@H](O)[C@H]1C(=O)N2C(C(=O)O)=C(SCCNC=N)C[C@H]12.O [Imipenem],inactive: 2.96
14,C[C@]12CCC3=C4CCC(=O)C=C4CC[C@H]3[C@@H]1CC[C@@]2(O)CC#N [Dienogest],inactive: 1.01
15,Cc1ccccc1/C=C/C1=NCCN1.O=C(O)C(=O)O [Metrazoline oxalate],inactive: 3.21
16,Nc1nc(N)c(N=O)c(OCC2CCCCC2)n1,inactive: 0.346
17,Br.C/N=c1/nc(-c2ccccc2)n(-c2ccccc2)s1,inactive: 2.21
18,C#Cc1cccc(Nc2ncnc3cc(OCCOC)c(OCCOC)cc23)c1.Cl [Erlotinib HCl],inactive: 0.843
19,O=c1c(O)c(-c2ccc(O)cc2O)oc2cc(O)cc(O)c12,inactive: 1.85
20,CN(Cc1cnc2nc(N)nc(N)c2n1)c1ccc(C(=O)NC(CCC(=O)O)C(=O)O)cc1 (racemic),inactive: -0.458
21,COc1cc(OC)cc(-c2cc3cnc(N)nc3nc2NC(=O)NC(C)(C)C)c1,inactive: 3.06
22,CC1=CC(=O)C2C(C)(C)CCC[C@]2(C)[C@@]1(O)CCc1ccoc1 (some centres undefined),inactive: 1.92

# Quoted from the entries so far (2 entries):
row,Compound,cell-cell fusion (z-score)
4,NC(=O)c1cn(Cc2c(F)cccc2F)nn1 [Rufinamide],inactive: 2.77
5,CC1NC(=O)NC1=O (centres undefined),inactive: 0.478
